Some of the results follow.
What was measured:
Assay in all cases: log2 fold change, soluble protein after heating vs DMSO (PISA); higher = thermal stabilisation; K562 cells, 10 uM, 30 min; active = over 0.2 and 3.5 SD of the protein, either way, in both replicates (recomputed)
[1] = compound: NC(=O)Nc1cc(-c2cccc(F)c2)sc1C(=O)N[C@H]1CCCNC1
Summary of the method: (§1)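 Quantification of soluble protein used TMTpro 16plex LC-MS/MS, with channel sums equalised. Samples were the supernatant after 21,000xg for 90 min of pooled aliquots from K562 cells (2×10^6 cells/mL) treated with 10 μM compound for 30 min, heated for 3 min over 48°C-58°C, and extracted in PBS with 0.5% NP-40 at 4°C. Values, from duplicates, describe thermal stability against control samples on a log2 fold-change scale.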

Protein sequences, listed by entry. Tags and fused reporters are not part of them. Lines headed by an entry give the natural chain unless they say otherwise; changes in a name come on top.
UniProt Q12788: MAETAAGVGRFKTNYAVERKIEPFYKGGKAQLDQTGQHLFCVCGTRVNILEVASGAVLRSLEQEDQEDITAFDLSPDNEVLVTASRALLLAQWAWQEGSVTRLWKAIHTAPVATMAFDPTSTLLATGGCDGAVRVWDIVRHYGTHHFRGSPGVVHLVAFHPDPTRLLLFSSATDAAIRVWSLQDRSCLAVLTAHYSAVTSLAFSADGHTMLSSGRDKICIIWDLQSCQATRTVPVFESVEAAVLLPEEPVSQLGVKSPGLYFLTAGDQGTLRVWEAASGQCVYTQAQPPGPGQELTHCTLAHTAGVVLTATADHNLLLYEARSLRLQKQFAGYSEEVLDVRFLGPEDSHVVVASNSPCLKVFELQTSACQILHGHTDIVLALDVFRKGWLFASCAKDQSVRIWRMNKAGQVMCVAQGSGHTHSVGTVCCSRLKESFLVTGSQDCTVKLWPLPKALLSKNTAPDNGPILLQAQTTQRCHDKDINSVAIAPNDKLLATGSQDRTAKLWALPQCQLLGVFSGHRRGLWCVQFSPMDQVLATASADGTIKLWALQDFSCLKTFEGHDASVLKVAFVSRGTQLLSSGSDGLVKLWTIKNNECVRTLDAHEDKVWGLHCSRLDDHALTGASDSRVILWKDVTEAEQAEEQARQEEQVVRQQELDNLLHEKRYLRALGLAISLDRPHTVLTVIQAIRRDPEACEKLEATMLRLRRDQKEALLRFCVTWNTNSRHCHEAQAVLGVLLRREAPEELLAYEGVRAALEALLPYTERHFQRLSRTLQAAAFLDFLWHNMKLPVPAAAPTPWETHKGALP
UniProt Q9UGI8: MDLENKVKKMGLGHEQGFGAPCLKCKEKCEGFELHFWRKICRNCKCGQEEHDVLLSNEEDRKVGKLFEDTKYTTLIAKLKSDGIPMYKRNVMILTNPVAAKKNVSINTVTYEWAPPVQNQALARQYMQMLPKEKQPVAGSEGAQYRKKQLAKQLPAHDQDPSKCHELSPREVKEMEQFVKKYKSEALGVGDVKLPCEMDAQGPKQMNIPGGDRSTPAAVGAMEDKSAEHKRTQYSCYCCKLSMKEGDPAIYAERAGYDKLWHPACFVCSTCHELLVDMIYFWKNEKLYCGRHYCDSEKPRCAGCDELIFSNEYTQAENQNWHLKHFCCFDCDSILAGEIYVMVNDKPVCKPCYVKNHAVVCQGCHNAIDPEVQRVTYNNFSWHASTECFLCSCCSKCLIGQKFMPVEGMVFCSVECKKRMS
UniProt Q99426: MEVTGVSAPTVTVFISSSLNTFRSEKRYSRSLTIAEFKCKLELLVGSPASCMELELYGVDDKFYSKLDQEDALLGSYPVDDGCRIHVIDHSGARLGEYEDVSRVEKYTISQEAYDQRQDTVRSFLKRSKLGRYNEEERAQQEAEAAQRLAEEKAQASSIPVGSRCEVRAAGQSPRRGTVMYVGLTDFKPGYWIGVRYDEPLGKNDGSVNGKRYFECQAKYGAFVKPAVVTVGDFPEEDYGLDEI
UniProt P15923: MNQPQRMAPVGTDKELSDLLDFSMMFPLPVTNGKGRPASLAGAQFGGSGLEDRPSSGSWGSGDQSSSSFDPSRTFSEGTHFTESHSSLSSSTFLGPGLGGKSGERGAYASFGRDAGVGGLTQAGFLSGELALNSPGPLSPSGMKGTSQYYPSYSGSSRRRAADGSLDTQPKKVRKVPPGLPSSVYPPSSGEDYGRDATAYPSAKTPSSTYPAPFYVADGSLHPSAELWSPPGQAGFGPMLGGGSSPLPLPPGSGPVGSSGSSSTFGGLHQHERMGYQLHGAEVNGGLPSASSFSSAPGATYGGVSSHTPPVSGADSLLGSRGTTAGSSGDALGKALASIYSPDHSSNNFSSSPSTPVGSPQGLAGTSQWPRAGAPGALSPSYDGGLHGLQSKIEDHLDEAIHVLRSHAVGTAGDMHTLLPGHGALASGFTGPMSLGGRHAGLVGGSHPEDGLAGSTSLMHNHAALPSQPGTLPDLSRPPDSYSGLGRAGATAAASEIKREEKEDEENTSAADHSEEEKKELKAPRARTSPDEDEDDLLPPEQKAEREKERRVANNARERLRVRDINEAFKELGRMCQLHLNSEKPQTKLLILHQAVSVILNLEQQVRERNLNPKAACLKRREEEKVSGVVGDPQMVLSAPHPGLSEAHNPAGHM
UniProt Q9Y2W6: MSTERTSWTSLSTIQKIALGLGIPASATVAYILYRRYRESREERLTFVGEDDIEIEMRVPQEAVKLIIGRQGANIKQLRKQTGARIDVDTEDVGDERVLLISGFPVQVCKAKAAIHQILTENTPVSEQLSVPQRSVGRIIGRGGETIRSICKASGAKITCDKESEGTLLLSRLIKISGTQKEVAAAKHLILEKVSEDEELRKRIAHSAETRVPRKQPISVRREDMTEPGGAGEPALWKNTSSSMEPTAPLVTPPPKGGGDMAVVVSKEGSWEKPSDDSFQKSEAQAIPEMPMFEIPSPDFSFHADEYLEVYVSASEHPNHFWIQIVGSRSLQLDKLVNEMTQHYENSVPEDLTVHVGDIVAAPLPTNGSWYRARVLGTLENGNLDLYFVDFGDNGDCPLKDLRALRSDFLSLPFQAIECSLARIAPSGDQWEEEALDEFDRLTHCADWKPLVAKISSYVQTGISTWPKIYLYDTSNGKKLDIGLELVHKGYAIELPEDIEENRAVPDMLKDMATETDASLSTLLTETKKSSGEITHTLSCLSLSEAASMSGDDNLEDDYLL
UniProt P62380: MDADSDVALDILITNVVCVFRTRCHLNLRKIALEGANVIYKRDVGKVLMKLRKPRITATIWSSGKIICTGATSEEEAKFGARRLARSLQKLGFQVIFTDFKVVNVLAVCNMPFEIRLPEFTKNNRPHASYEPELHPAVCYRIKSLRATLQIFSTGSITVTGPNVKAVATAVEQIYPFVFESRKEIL
UniProt P02787, whole entry, looked up: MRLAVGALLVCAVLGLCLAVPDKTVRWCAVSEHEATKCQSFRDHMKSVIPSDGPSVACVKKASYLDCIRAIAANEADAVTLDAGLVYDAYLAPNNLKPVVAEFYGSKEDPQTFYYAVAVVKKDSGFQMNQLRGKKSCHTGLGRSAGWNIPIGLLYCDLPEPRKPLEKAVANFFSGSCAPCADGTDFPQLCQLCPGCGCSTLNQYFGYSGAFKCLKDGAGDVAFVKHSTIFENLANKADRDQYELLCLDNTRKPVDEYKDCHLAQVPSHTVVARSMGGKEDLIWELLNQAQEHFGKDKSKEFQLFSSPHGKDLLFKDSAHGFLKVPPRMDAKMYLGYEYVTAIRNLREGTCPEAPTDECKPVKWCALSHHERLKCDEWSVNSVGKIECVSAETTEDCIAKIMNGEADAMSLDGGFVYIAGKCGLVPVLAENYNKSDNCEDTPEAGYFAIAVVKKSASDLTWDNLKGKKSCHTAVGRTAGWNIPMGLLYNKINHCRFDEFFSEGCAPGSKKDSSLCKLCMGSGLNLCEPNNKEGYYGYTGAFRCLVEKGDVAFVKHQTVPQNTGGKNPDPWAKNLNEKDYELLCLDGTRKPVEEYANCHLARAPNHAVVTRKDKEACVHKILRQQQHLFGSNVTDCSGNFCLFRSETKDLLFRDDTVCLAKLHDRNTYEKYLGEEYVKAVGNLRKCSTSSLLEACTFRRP
UniProt O95551: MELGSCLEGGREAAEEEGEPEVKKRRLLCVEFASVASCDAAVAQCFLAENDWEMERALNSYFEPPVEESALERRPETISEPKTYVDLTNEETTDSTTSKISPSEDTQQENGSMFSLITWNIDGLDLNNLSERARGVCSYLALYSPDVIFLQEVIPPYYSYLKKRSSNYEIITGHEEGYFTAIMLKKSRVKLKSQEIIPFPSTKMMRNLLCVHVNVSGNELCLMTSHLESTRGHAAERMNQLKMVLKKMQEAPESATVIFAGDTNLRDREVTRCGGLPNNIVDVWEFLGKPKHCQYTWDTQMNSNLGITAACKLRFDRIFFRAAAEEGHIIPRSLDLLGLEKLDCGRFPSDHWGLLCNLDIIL
UniProt Q9Y4P3: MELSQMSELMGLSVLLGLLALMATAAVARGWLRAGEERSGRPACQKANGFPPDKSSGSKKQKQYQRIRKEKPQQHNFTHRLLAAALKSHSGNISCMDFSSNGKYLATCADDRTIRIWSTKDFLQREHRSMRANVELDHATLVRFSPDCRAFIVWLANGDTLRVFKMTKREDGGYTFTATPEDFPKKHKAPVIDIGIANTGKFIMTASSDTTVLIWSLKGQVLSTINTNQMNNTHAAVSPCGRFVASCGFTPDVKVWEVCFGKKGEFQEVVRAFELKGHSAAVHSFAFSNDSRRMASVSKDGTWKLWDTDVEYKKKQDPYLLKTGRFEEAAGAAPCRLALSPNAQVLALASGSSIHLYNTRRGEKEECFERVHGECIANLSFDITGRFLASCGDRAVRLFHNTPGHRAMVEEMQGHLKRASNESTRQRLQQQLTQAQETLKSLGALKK
UniProt P31483: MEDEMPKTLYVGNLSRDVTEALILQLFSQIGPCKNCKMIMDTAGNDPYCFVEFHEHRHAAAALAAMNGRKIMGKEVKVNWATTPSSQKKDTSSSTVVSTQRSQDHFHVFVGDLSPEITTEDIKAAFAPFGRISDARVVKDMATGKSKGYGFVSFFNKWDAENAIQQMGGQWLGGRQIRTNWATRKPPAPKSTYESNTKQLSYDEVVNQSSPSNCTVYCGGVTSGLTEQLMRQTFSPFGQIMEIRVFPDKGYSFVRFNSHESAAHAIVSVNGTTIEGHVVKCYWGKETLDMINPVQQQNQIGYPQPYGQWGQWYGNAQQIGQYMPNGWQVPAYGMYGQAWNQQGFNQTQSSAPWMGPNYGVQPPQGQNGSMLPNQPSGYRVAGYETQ
UniProt Q9NPL8: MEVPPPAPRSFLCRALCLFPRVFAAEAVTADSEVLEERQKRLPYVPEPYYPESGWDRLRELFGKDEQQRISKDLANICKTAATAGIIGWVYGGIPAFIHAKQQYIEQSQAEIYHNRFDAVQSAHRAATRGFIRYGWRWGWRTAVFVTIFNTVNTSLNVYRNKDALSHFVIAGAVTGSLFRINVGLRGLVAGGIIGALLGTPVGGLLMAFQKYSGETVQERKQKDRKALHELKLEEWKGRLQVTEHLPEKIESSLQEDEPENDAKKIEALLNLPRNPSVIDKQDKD
UniProt Q9NWX6: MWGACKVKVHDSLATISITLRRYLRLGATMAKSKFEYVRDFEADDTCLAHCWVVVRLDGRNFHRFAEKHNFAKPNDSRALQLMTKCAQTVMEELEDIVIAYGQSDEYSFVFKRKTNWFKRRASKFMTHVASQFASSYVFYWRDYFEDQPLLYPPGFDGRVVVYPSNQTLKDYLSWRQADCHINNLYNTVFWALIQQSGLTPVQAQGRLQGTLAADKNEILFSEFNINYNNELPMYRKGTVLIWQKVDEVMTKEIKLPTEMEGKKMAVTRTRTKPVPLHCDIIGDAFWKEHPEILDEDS
UniProt Q96J01: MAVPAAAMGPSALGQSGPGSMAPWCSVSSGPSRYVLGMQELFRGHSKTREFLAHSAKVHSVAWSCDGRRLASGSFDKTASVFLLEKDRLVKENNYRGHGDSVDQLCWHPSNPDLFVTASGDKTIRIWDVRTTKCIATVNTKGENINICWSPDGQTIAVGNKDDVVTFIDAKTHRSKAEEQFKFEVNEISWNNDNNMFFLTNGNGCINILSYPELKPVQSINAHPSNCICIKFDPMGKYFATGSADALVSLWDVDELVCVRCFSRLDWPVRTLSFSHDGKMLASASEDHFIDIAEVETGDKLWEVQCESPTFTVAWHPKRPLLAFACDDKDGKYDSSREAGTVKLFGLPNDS
UniProt Q3ZCQ8: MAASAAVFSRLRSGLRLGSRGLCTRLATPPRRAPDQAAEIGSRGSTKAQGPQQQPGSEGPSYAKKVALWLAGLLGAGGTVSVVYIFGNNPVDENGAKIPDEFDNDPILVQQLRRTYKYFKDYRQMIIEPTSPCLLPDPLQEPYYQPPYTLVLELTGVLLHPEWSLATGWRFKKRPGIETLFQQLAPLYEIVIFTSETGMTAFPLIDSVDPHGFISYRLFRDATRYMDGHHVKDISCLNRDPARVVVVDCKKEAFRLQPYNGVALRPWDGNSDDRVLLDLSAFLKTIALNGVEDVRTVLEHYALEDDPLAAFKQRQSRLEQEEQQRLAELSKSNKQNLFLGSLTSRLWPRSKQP
UniProt O60220: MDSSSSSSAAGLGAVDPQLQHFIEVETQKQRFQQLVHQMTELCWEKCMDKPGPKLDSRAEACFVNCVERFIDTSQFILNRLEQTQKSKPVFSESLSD
UniProt Q9Y5J7: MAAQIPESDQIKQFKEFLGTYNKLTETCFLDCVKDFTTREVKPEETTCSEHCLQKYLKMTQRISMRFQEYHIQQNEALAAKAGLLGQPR
UniProt Q9BVW5: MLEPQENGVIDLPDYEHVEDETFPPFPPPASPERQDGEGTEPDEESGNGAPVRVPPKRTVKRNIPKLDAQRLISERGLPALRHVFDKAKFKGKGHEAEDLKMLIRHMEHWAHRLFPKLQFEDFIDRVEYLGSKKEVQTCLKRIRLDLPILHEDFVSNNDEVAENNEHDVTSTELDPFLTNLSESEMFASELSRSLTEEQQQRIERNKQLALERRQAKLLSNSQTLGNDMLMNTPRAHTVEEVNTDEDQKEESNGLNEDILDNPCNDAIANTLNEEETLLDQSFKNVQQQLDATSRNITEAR

[2] = compound: NC(=O)c1cnc(N[C@@H]2CCCC[C@@H]2N)nc1Nc1cccc(-n2nccn2)c1
Summary of the method: as §1

[3] = compound: NC1(c2ccc(-c3nc4ccn5c(=O)[nH]nc5c4cc3-c3ccccc3)cc2)CCC1
Summary of the method: as §1

[4] = compound: NCC(=O)Nc1ccc(-n2nc(C(F)(F)F)cc2-c2ccc3c(ccc4ccccc43)c2)cc1
Summary of the method: as §1

entinostat = compound: Nc1ccccc1NC(=O)c1ccc(CNC(=O)OCc2cccnc2)cc1 [entinostat]
Summary of the method: as §1

vorinostat = compound: O=C(CCCCCCC(=O)Nc1ccccc1)NO [vorinostat]
Summary of the method: as §1

citarinostat = compound: O=C(CCCCCCNC(=O)c1cnc(N(c2ccccc2)c2ccccc2Cl)nc1)NO [citarinostat]
Summary of the method: as §1

silmitasertib = compound: O=C(O)c1ccc2c(c1)nc(Nc1cccc(Cl)c1)c1ccncc12 [silmitasertib]
Summary of the method: as §1

[5] = compound: O=C1NC(=O)C(c2cnc3ccccn23)=C1c1cn2c3c(cc(F)cc13)CN(C(=O)N1CCCCC1)CC2
Summary of the method: as §1

[6] = compound: c1cc(OCCN2CCCCC2)cc(-c2n[nH]c3ccc(-c4nnc[nH]4)cc23)c1
Summary of the method: as §1

entospletinib = compound: c1cn2cc(-c3ccc4cn[nH]c4c3)nc(Nc3ccc(N4CCOCC4)cc3)c2n1 [entospletinib]
Summary of the method: as §1

Measured: log2 fold change

TBL3 (UniProt Q12788)
inactive: [1] 0.07 | [2] 0.059 | [3] 0.178 | [4] 0.016 | entinostat -0.062 | vorinostat -0.024 | citarinostat -0.055 | silmitasertib 0.149 | [5] 0.075 | [6] -0.122 | entospletinib 0.024

TES (UniProt Q9UGI8)
inactive: [1] 0.006 | [2] 0.006 | [3] -0.018 | [4] 0 | entinostat -0.012 | vorinostat -0.004 | citarinostat 0.044 | silmitasertib -0.022 | [5] -0.019 | [6] -0.011 | entospletinib -0.004

TBCB (UniProt Q99426)
inactive: [1] -0.044 | [2] -0.066 | [3] -0.145 | [4] -0.026 | entinostat 0.027 | vorinostat 0.011 | citarinostat 0.058 | silmitasertib 0.039 | [5] -0.045 | [6] -0.01 | entospletinib -0.033

TCF3 (UniProt P15923)
inactive: [1] 0.009 | [2] -0.092 | [3] -0.063 | [4] -0.065 | entinostat 0.067 | vorinostat -0.117 | citarinostat -0.016 | silmitasertib 0.1 | [5] -0.042 | [6] -0.053 | entospletinib -0.056

TDRKH (UniProt Q9Y2W6)
inactive: [1] -0.039 | [2] -0.014 | [3] -0.048 | [4] -0.034 | entinostat -0.008 | vorinostat 0.055 | citarinostat -0.024 | silmitasertib -0.053 | [5] -0.01 | [6] 0.069 | entospletinib -0.102

TBPL1 (UniProt P62380)
inactive: [1] 0.068 | [2] -0.022 | [3] -0.084 | [4] -0.042 | entinostat 0.026 | vorinostat 0.017 | citarinostat 0.108 | silmitasertib 0.057 | [5] 0.118 | [6] -0.022 | entospletinib -0.014

Retrieved one by one from above (two):
TDRKH (UniProt Q9Y2W6)
inactive: [1] -0.039 | [2] -0.014 | [3] -0.048 | [4] -0.034 | entinostat -0.008 | vorinostat 0.055 | citarinostat -0.024 | silmitasertib -0.053 | [5] -0.01 | [6] 0.069 | entospletinib -0.102

TBPL1 (UniProt P62380)
inactive: [1] 0.068 | [2] -0.022 | [3] -0.084 | [4] -0.042 | entinostat 0.026 | vorinostat 0.017 | citarinostat 0.108 | silmitasertib 0.057 | [5] 0.118 | [6] -0.022 | entospletinib -0.014

Further entries.

TF (UniProt P02787)
inactive: [1] -0.357 | [2] -0.004 | [3] 0.071 | [4] 0.008 | entinostat -0.083 | vorinostat -0.131 | citarinostat 0.081 | silmitasertib 0.12 | [5] 0.042 | [6] 0.655 | entospletinib 0.288

THOC5 (UniProt Q13769)
inactive: [1] 0.002 | [2] -0.058 | [3] 0.051 | [4] -0.055 | entinostat -0.019 | vorinostat -0.007 | citarinostat -0.035 | silmitasertib 0.081 | [5] -0.05 | [6] -0.04 | entospletinib 0.022

TDP2 isoform 2 (UniProt O95551)
inactive: [1] -0.043 | [2] -0.025 | [3] -0.174 | [4] -0.085 | entinostat 0.108 | vorinostat 0.068 | citarinostat 0.046 | silmitasertib 0.004 | [5] -0.008 | [6] 0.012 | entospletinib -0.02

TK2 isoform 6 (UniProt O00142)
inactive: [1] -0.187 | [2] -0.088 | [3] -0.044 | [4] -0.219 | entinostat -0.035 | vorinostat 0.097 | citarinostat 0.013 | silmitasertib -0.057 | [5] 0.041 | [6] -0.019 | entospletinib 0.191

TBL2 (UniProt Q9Y4P3)
inactive: [1] 0.032 | [2] 0.039 | [3] 0.167 | [4] -0.036 | entinostat 0.052 | vorinostat -0.027 | citarinostat -0.039 | silmitasertib 0.197 | [5] 0.176 | [6] -0.107 | entospletinib 0.039

TLCD1 (UniProt Q96CP7)
inactive: [1] -0.005 | [2] -0.088 | [3] -0.061 | [4] -0.105 | entinostat 0.031 | vorinostat -0.018 | citarinostat -0.067 | silmitasertib 0.056 | [5] -0.115 | [6] -0.073 | entospletinib 0.037

TIMM17B (UniProt O60830)
inactive: [1] -0.008 | [2] 0.114 | [3] -0.003 | [4] 0.037 | entinostat -0.063 | vorinostat -0.092 | citarinostat 0.029 | silmitasertib 0.037 | [5] -0.008 | [6] -0.019 | entospletinib 0.013

TIA1 (UniProt P31483)
inactive: [1] -0.022 | [2] -0.017 | [3] -0.009 | [4] -0.011 | entinostat -0.026 | vorinostat 0.008 | citarinostat -0.031 | silmitasertib -0.018 | [5] 0.014 | [6] -0.021 | entospletinib 0.011

THOC1 (UniProt Q96FV9)
inactive: [1] -0.008 | [2] -0.041 | [3] -0.054 | [4] -0.119 | entinostat 0.019 | vorinostat 0.192 | citarinostat -0.026 | silmitasertib 0.007 | [5] 0.075 | [6] -0.12 | entospletinib 0.073

TIMMDC1 (UniProt Q9NPL8)
inactive: [1] 0.03 | [2] 0.013 | [3] 0.011 | [4] 0.049 | entinostat 0.009 | vorinostat -0.099 | citarinostat 0.011 | silmitasertib -0.042 | [5] -0.025 | [6] 0.003 | entospletinib 0.001

TKT isoform 2 (UniProt P29401)
inactive: [1] 0.008 | [2] 0.02 | [3] 0.062 | [4] 0.042 | entinostat -0.01 | vorinostat 0.022 | citarinostat -0.037 | silmitasertib -0.088 | [5] -0.019 | [6] 0.052 | entospletinib 0.001

THG1L (UniProt Q9NWX6)
inactive: [1] -0.012 | [2] 0.006 | [3] -0.038 | [4] -0.068 | entinostat -0.022 | vorinostat 0.042 | citarinostat 0.041 | silmitasertib -0.009 | [5] -0.048 | [6] 0.005 | entospletinib -0.063

THOC3 (UniProt Q96J01)
inactive: [1] 0.011 | [2] 0.034 | [3] -0.038 | [4] 0.012 | entinostat -0.048 | vorinostat 0.014 | citarinostat 0.027 | silmitasertib -0.018 | [5] -0.021 | [6] -0.003 | entospletinib 0.002

THUMPD2 (UniProt Q9BTF0)
inactive: [1] -0.014 | [2] -0.03 | [3] -0.004 | [4] 0.03 | entinostat -0.015 | vorinostat 0.063 | citarinostat -0.039 | silmitasertib -0.015 | [5] 0.032 | [6] -0.094 | entospletinib 0.051

TIMM50 isoform 2 (UniProt Q3ZCQ8)
inactive: [1] 0.067 | [2] 0.014 | [3] -0.088 | [4] -0.027 | entinostat -0.005 | vorinostat -0.007 | citarinostat -0.023 | silmitasertib -0.042 | [5] -0.086 | [6] -0.007 | entospletinib 0.011

TIMM8A (UniProt O60220)
inactive: [1] 0.072 | [2] 0.096 | [3] 0.033 | [4] 0.062 | entinostat 0.133 | vorinostat -0.153 | citarinostat -0.007 | silmitasertib -0.071 | [5] 0.018 | [6] 0.115 | entospletinib 0.052

TIMM9 (UniProt Q9Y5J7)
inactive: [1] 0.136 | [2] 0.023 | [3] 0.004 | [4] -0.012 | entinostat 0.145 | vorinostat -0.11 | citarinostat 0.029 | silmitasertib -0.01 | [5] -0.058 | [6] -0.003 | entospletinib 0.009

TGS1 (UniProt Q96RS0)
inactive: [1] 0.086 | [2] -0.039 | [3] 0.094 | [4] -0.018 | entinostat 0.092 | citarinostat -0.039 | silmitasertib -0.028 | [5] 0.022 | [6] 0.046 | entospletinib 0.045

TDRD15 (UniProt B5MCY1)
inactive: [1] -0.552 | [3] 0.08 | [4] -0.347 | entinostat -0.272 | vorinostat -0.119 | citarinostat -0.537 | silmitasertib 0.061 | [6] -0.169 | entospletinib 0.313

TIPIN (UniProt Q9BVW5)
inactive: [1] 0.003 | [2] -0.093 | [3] -0.008 | [4] -0.053 | entinostat -0.025 | vorinostat -0.034 | citarinostat 0.029 | silmitasertib 0.067 | [5] -0.065 | [6] -0.026 | entospletinib -0.06

TCEA1 (UniProt P23193)
inactive: [1] -0.005 | [2] -0.023 | [3] -0.029 | [4] -0.014 | entinostat 0.035 | vorinostat 0.016 | citarinostat 0.008 | silmitasertib -0.023 | [5] -0.012 | [6] -0.022 | entospletinib -0.012

Source: the supplement of paper PMC10849652
